According to PMC9198273:
No constants are given. Whether binding was seen depends on the method and setting. For some assays here: Binding seen in cells or lysates may run through a third protein. Some results given as binding are weak or reduced against the parent protein; the word gives no strength. Each block holds one substance with its values, some of them ahead of it.

By UniProt entry, the sequences of proteins in these tests, tags left out. Where a name states a change or a piece, a line headed by the entry shows the natural chain unless it says otherwise. Chains listed by the source or under a name are the forms on record and can include a tag or linker. Residues count along the entry.
UniProt P49682: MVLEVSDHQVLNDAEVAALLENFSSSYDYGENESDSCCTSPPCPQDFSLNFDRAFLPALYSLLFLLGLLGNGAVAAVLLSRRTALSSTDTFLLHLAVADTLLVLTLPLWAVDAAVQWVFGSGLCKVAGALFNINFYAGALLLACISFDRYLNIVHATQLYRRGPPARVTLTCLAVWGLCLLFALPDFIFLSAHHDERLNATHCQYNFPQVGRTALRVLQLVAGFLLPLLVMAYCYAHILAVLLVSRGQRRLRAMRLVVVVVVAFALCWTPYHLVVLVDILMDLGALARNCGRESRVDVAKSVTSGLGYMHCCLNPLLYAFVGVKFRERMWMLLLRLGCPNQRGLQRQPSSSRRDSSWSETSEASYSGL
CXCR3-B C-terminally fused to mNeonGreen (P49682, form named): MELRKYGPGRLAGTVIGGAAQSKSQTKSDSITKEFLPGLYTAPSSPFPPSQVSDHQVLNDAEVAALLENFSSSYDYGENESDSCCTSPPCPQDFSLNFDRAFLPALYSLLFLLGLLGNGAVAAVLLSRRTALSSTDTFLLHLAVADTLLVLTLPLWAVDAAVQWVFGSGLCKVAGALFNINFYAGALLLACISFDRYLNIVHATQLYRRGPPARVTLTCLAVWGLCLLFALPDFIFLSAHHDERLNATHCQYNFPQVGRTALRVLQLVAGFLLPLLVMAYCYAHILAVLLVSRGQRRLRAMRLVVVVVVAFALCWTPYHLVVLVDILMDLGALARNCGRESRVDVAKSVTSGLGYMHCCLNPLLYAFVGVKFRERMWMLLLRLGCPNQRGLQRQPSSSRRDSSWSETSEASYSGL
UniProt P13501, residues 24-91: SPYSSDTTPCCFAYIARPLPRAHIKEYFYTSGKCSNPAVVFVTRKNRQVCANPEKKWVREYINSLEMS
UniProt P49407: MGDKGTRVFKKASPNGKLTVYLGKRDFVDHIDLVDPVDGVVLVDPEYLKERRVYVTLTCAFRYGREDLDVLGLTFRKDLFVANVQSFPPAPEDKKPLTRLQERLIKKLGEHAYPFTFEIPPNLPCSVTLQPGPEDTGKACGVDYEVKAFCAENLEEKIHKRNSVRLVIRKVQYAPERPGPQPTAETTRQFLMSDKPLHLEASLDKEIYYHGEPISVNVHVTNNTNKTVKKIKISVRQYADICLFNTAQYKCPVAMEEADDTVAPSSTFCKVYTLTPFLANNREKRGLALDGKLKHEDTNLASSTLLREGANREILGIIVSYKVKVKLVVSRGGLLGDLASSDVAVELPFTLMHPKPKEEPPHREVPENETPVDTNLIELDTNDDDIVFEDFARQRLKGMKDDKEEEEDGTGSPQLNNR

How the values were obtained:
[1] = molecular target: CXCR3-B C-terminally fused to mNeonGreen (human) (UniProt P49682); assay: flow cytometry on cells; HEK293T cells transiently expressing receptor-mNeonGreen incubated 1 hour at 37°C (uptake) or 4°C with 33 nM Alexa Fluor 647-labeled chemokine, with or without proteinase K treatment afterwards; only the binder purified
[2] = molecular target: CXCR3-A C-terminally fused to mNeonGreen (human) (UniProt P49682); assay: as above
[3] = molecular target: CXCR3-A C-terminally fused with SmBiT (human) (UniProt P49682); assay: split reporter; live HEK293T cells co-transfected with receptor-SmBiT and LgBiT-miniG or LgBiT-β-arrestin; coelenterazine H in Opti-MEM; stimulated with CXCL11, CXCL10 or CXCL9 (concentration-response)
[4] = molecular target: CXCR3-B C-terminally fused with SmBiT (human) (UniProt P49682); assay: as above
[5] = molecular target: CXCR3-B C-terminally fused with SmBiT (human) (UniProt P49682); assay: split reporter; live HEK293T cells, receptor-SmBiT and LgBiT-β-arrestin; stimulated with CXCL10
[6] = molecular target: CXCR3-A C-terminally fused with SmBiT (human) (UniProt P49682); assay: split reporter; live HEK293T cells, receptor-SmBiT and LgBiT-β-arrestin; stimulated with CXCL9
[7] = molecular target: CXCR3-B C-terminally fused with SmBiT (human) (UniProt P49682); assay: as above
[8] = molecular target: CXCR3-B C-terminally fused with SmBiT (human) (UniProt P49682); assay: split reporter; live U-87 MG cells, receptor-SmBiT and LgBiT-β-arrestin; stimulated with CXCL10
[9] = molecular target: CXCR3-A C-terminally fused with SmBiT (human) (UniProt P49682); assay: split reporter; live U-87 MG cells, receptor-SmBiT and LgBiT-β-arrestin; stimulated with CXCL9
[10] = molecular target: CXCR3-B C-terminally fused with SmBiT (human) (UniProt P49682); assay: as above
[11] = molecular target: CXCR3-A C-terminally fused with SmBiT (human) (UniProt P49682); assay: split reporter; live U-87 MG cells, receptor-SmBiT and LgBiT-β-arrestin; stimulated with CXCL11 or CXCL10
[12] = molecular target: CXCR3-B C-terminally fused with SmBiT (human) (UniProt P49682); assay: as above
[13] = molecular target: CXCR3-B C-terminally fused to mNeonGreen (human) (UniProt P49682); assay: FRET or BRET; NanoBRET in live HEK293T cells, nanoluciferase-β-arrestin and receptor-mNeonGreen; stimulated with CXCL11 or CXCL10
[14] = molecular target: CXCR3-A C-terminally fused to mNeonGreen (human) (UniProt P49682); assay: as above
[15] = molecular target: CXCR3-B C-terminally fused to mNeonGreen (human) (UniProt P49682); assay: FRET or BRET; NanoBRET in live HEK293T cells, nanoluciferase-β-arrestin and receptor-mNeonGreen; stimulated with CXCL9
[16] = molecular target: CXCR3-A C-terminally fused to mNeonGreen (human) (UniProt P49682); assay: as above
[17] = molecular target: CXCR3-B C-terminally fused to mNeonGreen (human) (UniProt P49682); assay: FRET or BRET; NanoBRET in live HEK293T cells, nanoluciferase-β-arrestin and receptor-mNeonGreen; stimulated with CXCL10

- binding [1]: no binding (tested: 33 nM)
- binding [2]: no binding (tested: 33 nM)
Substance: CCL5 coupled to Alexa Fluor 647 (from UniProt P13501 24-91) (ligand)

- binding [3]: binds
- binding [4]: binds
- binding [5]: binds weakly
- binding [6]: binds weakly
- binding [7]: binds weakly
- binding [8]: binds weakly
- binding [9]: binds weakly
- binding [10]: binds weakly
- binding [11]: binds
- binding [12]: binds
Substance: β-arrestin-1 N-terminally fused with LgBiT (from UniProt P49407 1-418)

- binding [13]: binds
- binding [14]: binds
- binding [15]: binds weakly
- binding [16]: binds weakly
- binding [17]: binds weakly
Substance: β-arrestin-1 N-terminally fused with nanoluciferase (from UniProt P49407 1-418)
